These are yes or no findings as the source states them, for the method shown. In cells and extracts the contact can be indirect.
Target: MAGOH-C-LgBiT (human) (UniProt P61326)
Experiment: split reporter; NanoBiT; both fusions transiently co-transfected in HEK 293 cells; luciferase activity (RLU) with furimazine in lysates

By UniProt entry, the sequences of proteins in these tests, tags left out.
UniProt P61326: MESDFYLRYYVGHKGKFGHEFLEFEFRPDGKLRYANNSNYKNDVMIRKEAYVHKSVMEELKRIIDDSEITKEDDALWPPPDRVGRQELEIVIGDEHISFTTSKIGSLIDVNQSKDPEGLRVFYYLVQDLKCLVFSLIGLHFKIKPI

binding: no binding
Substance: SmBiT-N-MAGOH (from UniProt P61326 1-146) (other; other documents disagree on this pair)
